US8392127B2, “Methods and gene expression signature for assessing growth factor signaling pathway regulation status” (Merck Sharp & Dohme Corp., priority 2008, dated 2013)
For some of these results: The name of at least one read-out is uncertain. For some of these results: For at least one compound, name, drawing or mass did not settle the structure.

Legend:
proliferation signature = experiment: Signature inhibition in the connectivity map dataset; format: cell-based; settings: for rank in terms of significance of proliferation signature inhibition: among all compounds in the connectivity map dataset; for inhibition of the proliferation signature: connectivity map dataset
Excerpt: To further validate the growth factor signature, we leveraged signatures of drug response from the connectivity map dataset (Lamb et al., 2006, Science 313:1929-1935). This dataset comprises mRNA expression data for 164 distinct small molecules, representing 453 individual compound treatment experiments. These small molecule inhibitors include the PI3K inhibitors wortmannin and LY-294002 and the mTOR inhibitor sirolimus. We surmised that if the growth factor signature truly represents activation of the PI3K pathway, these compounds should have an inhibitory effect on the signature. […] In contrast, other perturbagens in the connectivity map dataset either have no effect, a less significant inhibitory effect, or an activating effect on the growth factor signaling signature. […] For example, while LY-294002 was the top ranked compound in terms of significance of proliferation signature inhibition, sirolimus was ranked fifth, and wortmannin was ranked 23rd (Table 12).

MYC signature = experiment: as above; format: cell-based
[1] = Time to achieve Cmax after oral dosing; format: in vivo, HRLN female nu/nu mice; settings: after the final dose

Row | Compound | rank in terms of significance of proliferation signature inhibition (proliferation signature) | inhibition of the proliferation signature (proliferation signature) | inhibition of the MYC signature (MYC signature) | estimated time to achieve Cmax [1] [h] | inhibition of the proliferation signature (proliferation signature; listed as wormannin)
1 | O=c1cc(N2CCOCC2)oc2c(-c3ccccc3)cccc12 [LY-294002] | top ranked | inhibited | inhibited | – | –
2 | CN(C[C@@H]1COCCO1)S(=O)(=O)Nc1ccc2ccc3ncc(-c4cnn(C)c4)cc3c(=O)c2c1 [MK-2461, N-[(2R)-1,4-dioxan-2-ylmethyl]-N-methyl-N′-[3-(1-methyl-1H-pyrazol-4-yl)-5-oxo-5H-benzo[4,5]cyclohepta[1,2-b]pyridin-7-yl]sulfamide] | – | – | – | 2 | –
3 | CO[C@H]1C[C@@H]2CC[C@@H](C)[C@@](O)(O2)C(=O)C(=O)N2CCCC[C@H]2C(=O)O[C@H]([C@H](C)C[C@@H]2CC[C@@H](O)[C@H](OC)C2)CC(=O)[C@H](C)/C=C(\C)[C@@H](O)[C@@H](OC)C(=O)[C@H](C)C[C@H](C)/C=C/C=C/C=C/1C [sirolimus] | fifth | inhibited | inhibited | – | –
4 | COC[C@H]1OC(=O)c2coc3c2[C@@]1(C)C1=C(C3=O)[C@@H]2CCC(=O)[C@@]2(C)C[C@H]1OC(C)=O [wortmannin] | – | not statistically significant | inhibited | – | inhibited
